{"sequences": {"note": "The chains behind the UniProt entries cited, without tags or fusion partners. Where a name states a change or a piece, a line headed by the entry shows the natural chain unless it says otherwise.", "UniProt P18054": "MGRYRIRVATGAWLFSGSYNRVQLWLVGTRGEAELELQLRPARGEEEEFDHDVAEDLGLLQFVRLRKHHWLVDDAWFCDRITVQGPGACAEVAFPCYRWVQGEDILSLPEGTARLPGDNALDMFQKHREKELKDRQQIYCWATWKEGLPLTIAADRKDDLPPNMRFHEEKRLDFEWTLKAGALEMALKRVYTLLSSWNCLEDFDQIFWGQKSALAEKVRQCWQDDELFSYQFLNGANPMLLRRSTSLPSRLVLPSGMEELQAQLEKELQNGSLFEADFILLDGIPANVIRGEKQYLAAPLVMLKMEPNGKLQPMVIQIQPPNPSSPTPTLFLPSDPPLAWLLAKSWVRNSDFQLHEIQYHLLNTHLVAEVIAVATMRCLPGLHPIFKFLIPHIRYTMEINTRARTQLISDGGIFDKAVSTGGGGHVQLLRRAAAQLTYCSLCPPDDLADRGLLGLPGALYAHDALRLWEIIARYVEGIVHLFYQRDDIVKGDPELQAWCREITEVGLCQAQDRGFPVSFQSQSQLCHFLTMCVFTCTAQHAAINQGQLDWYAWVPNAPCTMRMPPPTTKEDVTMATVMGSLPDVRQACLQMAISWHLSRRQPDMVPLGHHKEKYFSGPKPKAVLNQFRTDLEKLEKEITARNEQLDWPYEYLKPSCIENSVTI"}, "source": "PubChem BioAssay AID1671190", "about": "(National Center for Advancing Translational Sciences (NCATS), 2021)", "note": "Out of some 580,000 compounds screened, about 6,100 (1.1%) were called active. The shares of active, inactive and inconclusive entries below differ from those in the screen. Calls come from the whole dose curve; as a rule, active = well fitted inhibition curve with a large enough effect; inconclusive = small, poorly fitted or top-dose-only effect, or another doubt; inactive = no such curve, though single readings can be large or run the other way. Potencies beside an inconclusive call are fits to weak or partial responses and may not hold up. % is set by controls: 0 for no effect and ±100 for the full control effect; potency is the fitted concentration of half-maximal effect.", "data": [{"target": "Polyunsaturated fatty acid lipoxygenase ALOX12 (Homo sapiens) (UniProt P18054)", "test": "Primary qHTS assay for inhibitors of human arachidonate 12S-lipoxygenase (ALOX12): Round 2", "settings": "purified 12hLO, xylenol orange hydroperoxide absorbance; activity change, negative = inhibition: at 108 µM (top of the series) unless noted", "how_it_was_run": "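Purified human 12hLO at 150 nM in 25 mM Hepes, 0.01% Triton X-100, pH 7.0, preincubated 15 min at room temperature with compound. Reaction started with 40 uM arachidonic acid, 30 min at room temperature. Hydroperoxide measured by Fe-xylenol orange, 573/405 nm absorbance ratio.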", "values": [{"smiles": "CC(C)CCNC(=O)NC(=O)CSc1ccc(S(=O)(=O)N2CCOCC2)cn1", "Potency": "inconclusive: 79.4 µM [inhibitor, partial curve, poor fit]"}, {"smiles": "CCCn1nc(C(=O)OCC(=O)N2c3ccccc3CC2C)c2ccccc2c1=O", "note": "(stereo not drawn)", "Potency": "inconclusive: 126 µM [inhibitor, single point]"}, {"smiles": "COc1ccc(CN2CCn3c(nn(-c4cccc(Cl)c4)c3=O)C2)cc1", "Potency": "inconclusive: 70.8 µM [inhibitor, partial curve, poor fit]"}, {"smiles": "O=C(O)c1ccc(I)c(Br)c1", "Potency": "inconclusive: 44.7 µM [inhibitor, partial curve, poor fit]"}, {"smiles": "COc1ccc(C(=O)N2CCOCC2)cc1Br", "activity change, negative = inhibition": "inactive: 3.12%"}, {"smiles": "Cc1cccc(C)c1NC(=O)C(c1ccc(C(F)(F)F)cc1)n1c(=O)c(-c2ccco2)nc2ccccc21", "note": "(stereo not drawn)", "Potency": "active: 14.1 µM"}, {"smiles": "COc1ccc(NC(=S)NC(=O)c2ccccc2)cn1", "Potency": "inconclusive: 44.7 µM [inhibitor, partial curve, poor fit]"}, {"smiles": "COc1ccc(-c2cc([C@H]3[C@@H]4C=CCC[C@@]4(C)C(=O)N3Cc3ccccc3)ccc2F)cc1OC", "Potency": "active: 11.2 µM"}, {"smiles": "Nc1nc(SCC(=O)c2ccc(Cl)cc2)c2ncn(C3OC(CO)C(O)C3O)c2n1", "note": "(stereo not drawn)", "Potency": "inconclusive: 89.1 µM [inhibitor, single point]"}, {"smiles": "CC1CCCN(c2ccc3nc4ccccc4c(=O)n3n2)C1", "note": "(stereo not drawn)", "activity change, negative = inhibition": "inactive: -17.7%"}, {"smiles": "O=C(c1cccs1)n1cc(C(=S)N2CCOCC2)c2ccccc21", "Potency": "inconclusive: 7.08 µM [inhibitor, full curve, poor fit]"}, {"smiles": "S=C(NCCCc1ccccc1)Nc1ccccc1Cl", "Potency": "inconclusive: 44.7 µM [inhibitor, partial curve, poor fit]"}, {"smiles": "Nn1c(SCC(=O)NCc2ccc(Cl)cc2)nnc1-c1cccs1", "Potency": "inconclusive: 44.7 µM [inhibitor, partial curve, poor fit]"}, {"smiles": "CN(C)C1(CNC(=O)c2cccc(S(=O)(=O)Nc3ccc(Br)cc3)c2)CCCCC1", "Potency": "inconclusive: 79.4 µM [inhibitor, single point]"}, {"smiles": "CC(C)NC(=O)c1onc(CSc2ccccc2)c1C(=O)O", "Potency": "inconclusive: 5.01 µM [inhibitor, full curve, poor fit]"}, {"smiles": "CN1CCN(c2ccc(S(=O)(=O)N3CCCCC3)cc2NC(=O)COc2ccc([N+](=O)[O-])cc2)CC1", "Potency": "inconclusive: 112 µM [inhibitor, single point]"}, {"smiles": "COc1ccccc1N1CCN(C(=O)c2cnn(C(C)(C)C)c2C2CCN(C(=O)OC(C)(C)C)CC2)CC1", "activity change, negative = inhibition": "inactive: 3.24%"}, {"smiles": "Cc1oc2c(cc(NS(=O)(=O)c3ccc(F)cc3)c3ccccc32)c1C(=O)O", "Potency": "inconclusive: 89.1 µM [inhibitor, single point]"}]}]}
